The results in this text go back to patent publication US11142543B2 (priority 2016, dated 2021).

This experiment relates to ICR mice with ethanol-induced memory reproduction disorder. Conditions: i.g. once a day for three consecutive weeks, donepezil 1.6 mg/kg, C-49 15 mg/kg, n = 10. The method, then:
Learning memory is an advanced function of the human and animal brains.
Before the retesting after training, the ethanol solution was administered to the mouse to block the memory reproduction process of the animal, resulting in memory reproduction disorder.
Male ICR mice, 16-18 g, were purchased from Shanghai Sippr-BK laboratory animal Co. Ltd.
40 male mice were randomly divided into 4 groups by Excel, and each group contained 10 animals. The mice in group 1 (blank group) and mice in group 2 (model group) were orally administered (i.g.) with drinking water daily.
After 3 weeks of administration, 1 hour after the last administration, the exercise was performed once in the dark avoidance method. The mice were placed in a dark avoidance box, and placed in the bright room with the back facing the hole. At the same time, the video analysis device was activated, and the animal passed through the hole into the dark room and received an electric shock, and the timing was automatically stopped. The mice were removed and the screen analysis would record the time required for each mouse to experience an electric shock from the bright room to the dark room, which was the latency period. After 24 h, the test was carried out, and 45% ethanol solution (0.1 ml/10 g) was orally administered 30 min before the test. The video analysis system would automatically record all relevant data of the animal. Data were expressed as mean standard deviation (x±s), and data difference statistics were analyzed by one-way variance (ANOVA) or X^2 test. The difference between groups was judged by P<0.05.

Each structure is given as a SMILES string. Marks after values point to notes of the source that are not given here.

Consider `COc1cc2c(cc1OC)C(=O)C(CC1CCN(Cc3ccccc3)CC1)C2` (stereo not drawn) [donepezil, reference compound], for which the “Number of shocked animals” value is 2* and the “Total number of errors (within 5 min)” value is listed as 6. The “Latency period from an open room to a dark room” value (x ± s) worked out at 220.1 ± 130.5 s.
